Results deposited as PubChem BioAssay AID1259254 (NCATS, 2017).

- Assay: 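Genome-wide screen for genes that prevent DNA re-replication in cancer cells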 (primary screen)
- System: human HCT116 colorectal cancer cells
- Reagents: single siRNA against human genes
- Timing: 3 days
- Measurement: 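Nuclei stained with Hoechst and imaged; cell-cycle phase assigned by DNA content; G2 share scaled per plate, non-targeting siRNA 0%, GMNN siRNA 100%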
- Scale: G2 robust z-score and G2 cells, % of GMNN control: higher = more G2 cells, more excess DNA replication
- Call rule: 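Active siRNAs have a G2 robust z of 5 or more median absolute deviations over the median, which in these data means about 38% or higher of GMNN control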
The whole screen tested about 59,000 reagents; shown is a part drawn at random. Of all reagents, about 1,550 (2.6%) were called active. 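G2 share is only a proxy for re-replication; each gene was hit by three separate siRNAs, and active genes were retested.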 Entries without a mark were called inactive. Reagents against one gene are numbered here. Not all columns of the deposit are shown. Not given: the amount of reagent.

SPNS3 #1 → G2 robust z-score: -0.0873; G2 cells, % of GMNN control: 2.35
SPNS3 #2 → G2 robust z-score: -1.41; G2 cells, % of GMNN control: -6.99
SPNS3 #3 → G2 robust z-score: -0.225; G2 cells, % of GMNN control: 1.39
TXK (TXK tyrosine kinase) #1 → G2 robust z-score: -1.25; G2 cells, % of GMNN control: -5.81
TXK (TXK tyrosine kinase) #2 → G2 robust z-score: 0.471; G2 cells, % of GMNN control: 6.28
TXK (TXK tyrosine kinase) #3 → G2 robust z-score: -0.108; G2 cells, % of GMNN control: 2.21
RPL23 (ribosomal protein L23) #1 → G2 robust z-score: 4.84; G2 cells, % of GMNN control: 37
RPL23 (ribosomal protein L23) #2 → G2 robust z-score: 3; G2 cells, % of GMNN control: 24.1
RPL23 (ribosomal protein L23) #3 → G2 robust z-score: 7.63 (active); G2 cells, % of GMNN control: 56.6
ESPN (espin) #1 → G2 robust z-score: -0.879; G2 cells, % of GMNN control: -3.22
ESPN (espin) #2 → G2 robust z-score: -0.801; G2 cells, % of GMNN control: -2.67
ESPN (espin) #3 → G2 robust z-score: -0.841; G2 cells, % of GMNN control: -2.95
FKBP1A (FKBP prolyl isomerase 1A) #1 → G2 robust z-score: 0.472; G2 cells, % of GMNN control: 6.29
FKBP1A (FKBP prolyl isomerase 1A) #2 → G2 robust z-score: 5.26 (active); G2 cells, % of GMNN control: 40
FKBP1A (FKBP prolyl isomerase 1A) #3 → G2 robust z-score: -0.0775; G2 cells, % of GMNN control: 2.42
MMEL1 (membrane metalloendopeptidase like 1) #1 → G2 robust z-score: -0.411; G2 cells, % of GMNN control: 0.0749
MMEL1 (membrane metalloendopeptidase like 1) #2 → G2 robust z-score: 0.614; G2 cells, % of GMNN control: 7.29
MMEL1 (membrane metalloendopeptidase like 1) #3 → G2 robust z-score: -1.42; G2 cells, % of GMNN control: -6.99

Called active (from the list above):
RPL23 (ribosomal protein L23) #3 → G2 robust z-score: 7.63 (active); G2 cells, % of GMNN control: 56.6
FKBP1A (FKBP prolyl isomerase 1A) #2 → G2 robust z-score: 5.26 (active); G2 cells, % of GMNN control: 40
